This test addresses T1, CTCF^HALO (CCCTC-binding factor with a C-terminal HALO domain, homozygous knock-in) (mouse (endogenous in E14-derived ES and NS cells)) (UniProt Q61164).
T1 sequence: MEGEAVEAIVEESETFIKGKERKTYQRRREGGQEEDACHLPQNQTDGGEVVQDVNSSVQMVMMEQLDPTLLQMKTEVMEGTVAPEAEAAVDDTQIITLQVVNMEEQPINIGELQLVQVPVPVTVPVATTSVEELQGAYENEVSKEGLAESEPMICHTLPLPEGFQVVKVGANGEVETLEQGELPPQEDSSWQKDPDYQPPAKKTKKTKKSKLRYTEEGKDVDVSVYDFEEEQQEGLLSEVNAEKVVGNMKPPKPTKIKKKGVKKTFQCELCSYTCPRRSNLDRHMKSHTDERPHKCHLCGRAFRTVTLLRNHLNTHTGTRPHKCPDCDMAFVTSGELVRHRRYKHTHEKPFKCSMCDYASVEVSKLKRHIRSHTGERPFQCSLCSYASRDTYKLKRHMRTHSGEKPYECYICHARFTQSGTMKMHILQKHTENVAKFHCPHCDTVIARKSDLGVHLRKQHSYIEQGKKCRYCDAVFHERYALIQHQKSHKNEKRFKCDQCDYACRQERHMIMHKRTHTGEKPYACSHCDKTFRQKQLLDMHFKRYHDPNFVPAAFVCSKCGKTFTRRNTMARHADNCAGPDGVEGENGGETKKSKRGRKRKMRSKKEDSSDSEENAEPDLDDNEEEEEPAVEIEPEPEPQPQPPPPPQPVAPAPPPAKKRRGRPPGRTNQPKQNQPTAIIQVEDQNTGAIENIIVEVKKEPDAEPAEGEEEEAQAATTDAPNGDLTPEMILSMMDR
Put plainly: proximity ligation; Duolink PLA in PFA-fixed, Triton-permeabilised CTCF^HALO ES and NS cells (also wild-type, Pantr1-/- and Neat1-/- NS cells); puncta counted per nucleus.

These are yes or no findings as the source states them, for the method shown. Binding seen in cells or lysates may run through a third protein. Some binding calls cover weakened binding; strength is not graded here.

B1: Non-POU Domain Containing Octamer Binding (Nono) (protein, UniProt Q99K48 1-473)
chain: MQSNKAFNLEKQNHTPRKHHQHHHQQHHQQQQQQQQQQPPPPIPANGQQASSQNEGLTIDLKNFRKPGEKTFTQRSRLFVGNLPPDITEEEMRKLFEKYGKAGEVFIHKDKGFGFIRLETRTLAEIAKVELDNMPLRGKQLRVRFACHSASLTVRNLPQYVSNELLEEAFSVFGQVERAVVIVDDRGRPSGKGIVEFSGKPAARKALDRCSEGSFLLTTFPRPVTVEPMDQLDDEEGLPEKLVIKNQQFHKEREQPPRFAQPGSFEYEYAMRWKALIEMEKQQQDQVDRNIKEAREKLEMEMEAARHEHQVMLMRQDLMRRQEELRRMEELHNQEVQKRKQLELRQEEERRRREEEMRRQQEEMMRRQQEGFKGTFPDAREQEIRMGQMAMGGAMGINNRGAMPPAPVPPGTPAPPGPATMMPDGTLGLTPPTTERFGQAATMEGIGAIGGTPPAFNRPAPGAEFAPNKRRRY
In the case of B1, the binding result is reported as “binds”.

The values above are taken from paper PMC12431861.
